Data as given in publication PMC4345935.
No constants are given. Whether binding was seen depends on the method and setting. In cells and extracts the contact can be indirect. Binding calls can cover weak binding; strength is not graded here. Tags and fused reporters may be left off the sequences shown. Values belong to the molecule of their own block, whether it stands above or below them.

Columns and labels:
[1] = target: T1, Intraflagellar transport protein-88 (IFT88), endogenous (human (endogenous in HEKT293 and HeLa)) (UniProt Q13099); assay: co-IP; reciprocal: endogenous IFT88 precipitated from lysate of serum-starved HEKT293 cells; immunoblot for CENP-F; IgG isotype control
T1 sequence: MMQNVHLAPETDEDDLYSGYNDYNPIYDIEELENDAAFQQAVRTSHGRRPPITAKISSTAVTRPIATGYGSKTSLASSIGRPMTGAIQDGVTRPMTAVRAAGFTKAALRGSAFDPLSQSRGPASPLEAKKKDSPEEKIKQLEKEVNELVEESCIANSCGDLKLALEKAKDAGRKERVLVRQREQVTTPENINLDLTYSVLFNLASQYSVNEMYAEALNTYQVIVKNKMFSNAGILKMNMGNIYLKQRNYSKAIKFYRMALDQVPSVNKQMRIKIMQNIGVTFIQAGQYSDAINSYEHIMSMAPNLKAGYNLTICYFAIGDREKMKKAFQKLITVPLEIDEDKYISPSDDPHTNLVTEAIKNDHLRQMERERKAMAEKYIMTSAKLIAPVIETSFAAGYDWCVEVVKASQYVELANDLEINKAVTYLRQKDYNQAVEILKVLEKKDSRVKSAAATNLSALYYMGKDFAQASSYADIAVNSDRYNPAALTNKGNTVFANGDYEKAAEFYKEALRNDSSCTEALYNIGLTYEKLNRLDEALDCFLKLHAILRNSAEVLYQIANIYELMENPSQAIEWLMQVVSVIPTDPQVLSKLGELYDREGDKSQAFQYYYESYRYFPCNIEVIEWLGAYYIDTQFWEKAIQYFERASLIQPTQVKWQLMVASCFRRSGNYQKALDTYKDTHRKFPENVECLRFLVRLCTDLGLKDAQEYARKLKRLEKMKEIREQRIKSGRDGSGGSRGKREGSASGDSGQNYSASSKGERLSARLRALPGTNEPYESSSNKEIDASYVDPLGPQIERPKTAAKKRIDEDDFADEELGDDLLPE

[2] = target: CENP-F (centromere protein F), endogenous (human (endogenous in HEKT293 and HeLa)); assay: co-IP; lysate of mitotic HEKT293 cells in radio-immunoprecipitation assay buffer, incubated with monoclonal anti-CENP-F (ab90, Abcam, 1:100) for 24 h at 4°C; immunoblot with anti-IFT88 and anti-KIF3B; IgG isotype control

binding [1]: binds
Molecule: CENP-F (centromere protein F), endogenous (human (endogenous in HEKT293 and HeLa))

binding [2]: binds
B1: KIF3B (protein, UniProt O15066 1-747)
chain: MSKLKSSESVRVVVRCRPMNGKEKAASYDKVVDVDVKLGQVSVKNPKGTAHEMPKTFTFDAVYDWNAKQFELYDETFRPLVDSVLQGFNGTIFAYGQTGTGKTYTMEGIRGDPEKRGVIPNSFDHIFTHISRSQNQQYLVRASYLEIYQEEIRDLLSKDQTKRLELKERPDTGVYVKDLSSFVTKSVKEIEHVMNVGNQNRSVGATNMNEHSSRSHAIFVITIECSEVGLDGENHIRVGKLNLVDLAGSERQAKTGAQGERLKEATKINLSLSALGNVISALVDGKSTHIPYRDSKLTRLLQDSLGGNAKTVMVANVGPASYNVEETLTTLRYANRAKNIKNKPRVNEDPKDALLREFQEEIARLKAQLEKRSIGRRKRREKRREGGGSGGGGEEEEEEGEEGEEEGDDKDDYWREQQEKLEIEKRAIVEDHSLVAEEKMRLLKEKEKKMEDLRREKDAAEMLGAKIKAMESKLLVGGKNIVDHTNEQQKILEQKRQEIAEQKRREREIQQQMESRDEETLELKETYSSLQQEVDIKTKKLKKLFSKLQAVKAEIHDLQEEHIKERQELEQTQNELTRELKLKHLIIENFIPLEEKSKIMNRAFFDEEEDHWKLHPITRLENQQMMKRPVSAVGYKRPLSQHARMSMMIRPEARYRAENIVLLELDMPSRTTRDYEGPAIAPKVQAALDAALQDEDEIQVDASSFESTANKKSKARPKSGRKSGSSSSSSGTPASQLYPQSRGLVPK

binding [2]: binds
B2: Intraflagellar transport protein-88 (IFT88), endogenous (protein, UniProt Q13099 1-824)
chain: T1 sequence
